Results taken from PubChem BioAssay AID330 (DTP/NCI, 2004).
The list shows only some results of the screen, not a fair sample: it is rich in T/C values a quarter to a half above the control, in often repeated tests (any T/C) and in doses without a T/C. Further doses and runs are listed elsewhere. T/C is the treated group as % of the vehicle group. Some entries give survivors of the animals treated and no T/C: the source files T/C as zero there, which appears to mark a toxic dose or a test without result, not a measured value. Survivors were counted at the toxicity check, usually on the fifth day, unless a day is given; later deaths do not show. Schedule codes are those of the source, taken here to give the interval after Q, in days (D) or hours (H), and the number of doses after X. Some entries were tested several times; the values are given in rising order. Some survivor counts are full or nearly so, which does not show that the dose was tolerated: survival well below the control is almost never listed, so the zero probably covers shortened survival too. For survival time, this PubChem deposit counts one and a half times the control or more as active, and values a quarter to a half above the control carry no call in these data; other NCI protocols may use other cut-offs. Some T/C values are followed by the survivors on the day toxicity was checked, most often the fifth; without a count, all were alive then.

Tested on: P388 leukemia ip, CD2F1 mice, survival T/C
Test: NCI In Vivo Anticancer Drug Screen. Data for tumor model P388 Leukemia (intraperitoneal) in CD2F1 (CDF1) mice
Conditions: T/C endpoint: median survival time, higher T/C = longer survival
[1] = dose: 4.0 mg/kg/injection, schedule: Q01DX005 (ip), vehicle: saline + alcohol

Structure (SMILES): COC(=O)[C@@]12OC[C@]34[C@H]([C@@H](O)[C@@H]1O)[C@@]1(C)CC(=O)C(O)=C(C)[C@@H]1C[C@H]3OC(=O)[C@H](OC(=O)/C=C(\C)C(C)C)[C@@H]24
- survivor count (dose: 2.0 mg/kg/injection, schedule: Q01DX005 (ip), vehicle: saline + alcohol): 1 of 6, 2 of 6, 2 of 5, 3 of 5
- survivor count (dose: 2.0 mg/kg/injection, schedule: Q01DX005 (ip), vehicle: water): 0 of 5 and 2 of 6
- survivor count (dose: 2.0 mg/kg/injection, schedule: Q01DX009 (ip), vehicle: distilled water + Tween-80): 2 of 6
- T/C (dose: 2.0 mg/kg/injection, schedule: Q01DX009 (ip), vehicle: saline + alcohol, evaluated on day 30): 161, 162, 163, 166, 169 % of control
- T/C (dose: 2.0 mg/kg/injection, schedule: Q01DX009 (ip), vehicle: saline + alcohol, evaluated on day 60): 153 % of control [7 of 10 alive]
- survivor count (dose: 2.0 mg/kg/injection, schedule: Q01DX009 (ip), vehicle: saline + alcohol): 0 of 6, 1 of 5, 2 of 6, 3 of 6, 4 of 6, 6 of 6
- survivor count (dose: 2.0 mg/kg/injection, schedule: Q01DX009 (sc), vehicle: saline + alcohol): 5 of 10
- survivor count (dose: 2.0 mg/kg/injection, schedule: Q03HX008 (ip), vehicle: saline + alcohol): 0 of 10
- survivor count (dose: 2.0 mg/kg/injection, schedule: Q03HX016 (ip), vehicle: saline + alcohol): 0 of 10
- T/C (dose: 2.0 mg/kg/injection, schedule: Q04DX003 (ip), vehicle: saline + alcohol): 138 % of control
- survivor count (dose: 3.0 mg/kg/injection, schedule: Q01DX009 (ip), vehicle: saline + Tween-80 + alcohol): 0 of 6
- survivor count (dose: 4.0 mg/kg/injection, schedule: Q01DX001 (sc), vehicle: saline + alcohol): 3 of 10
- T/C [1]: 140 % of control [4 of 5 alive]
- survivor count [1]: 0 of 5, 0 of 6, 2 of 6, 3 of 5
- survivor count (dose: 4.0 mg/kg/injection, schedule: Q01DX005 (ip), vehicle: water): 0 of 5 and 0 of 6
- survivor count (dose: 4.0 mg/kg/injection, schedule: Q01DX009 (ip), vehicle: distilled water + Tween-80): 0 of 6
- survivor count (dose: 4.0 mg/kg/injection, schedule: Q01DX009 (ip), vehicle: saline + alcohol): 0 of 5, 0 of 6, 1 of 10, 1 of 6
- survivor count (dose: 4.0 mg/kg/injection, schedule: Q01DX009 (ip), vehicle: saline with Tween-80): 2 of 10
- survivor count (dose: 4.0 mg/kg/injection, schedule: Q01DX009 (oral), vehicle: saline + alcohol): 3 of 10
- T/C (dose: 4.0 mg/kg/injection, schedule: Q04DX003 (ip), vehicle: saline + alcohol): 135 % of control [7 of 10 alive]
- T/C (dose: 4.0 mg/kg/injection, schedule: Q08DX002 (ip), vehicle: saline + alcohol): 126 % of control [8 of 10 alive]
- survivor count (dose: 8.0 mg/kg/injection, schedule: Q01DX001 (ip), vehicle: saline + alcohol): 0 of 10
- survivor count (dose: 8.0 mg/kg/injection, schedule: Q01DX001 (oral), vehicle: saline + alcohol): 4 of 10
- survivor count (dose: 8.0 mg/kg/injection, schedule: Q01DX001 (sc), vehicle: saline + alcohol): 0 of 10
- survivor count (dose: 8.0 mg/kg/injection, schedule: Q01DX005 (ip), vehicle: saline + alcohol): 0 of 6
- survivor count (dose: 8.0 mg/kg/injection, schedule: Q01DX009 (oral), vehicle: saline + alcohol): 0 of 10
- survivor count (dose: 8.0 mg/kg/injection, schedule: Q08DX002 (ip), vehicle: saline + alcohol): 0 of 10
- survivor count (dose: 16.0 mg/kg/injection, schedule: Q01DX001 (ip), vehicle: saline + alcohol): 0 of 10
- survivor count (dose: 16.0 mg/kg/injection, schedule: Q01DX001 (oral), vehicle: saline + alcohol): 0 of 10
- survivor count (dose: 16.0 mg/kg/injection, schedule: Q01DX001 (sc), vehicle: saline + alcohol): 0 of 10
- survivor count (dose: 16.0 mg/kg/injection, schedule: Q08DX002 (ip), vehicle: saline + alcohol): 0 of 10
- survivor count (dose: 32.0 mg/kg/injection, schedule: Q01DX001 (oral), vehicle: saline + alcohol): 0 of 10
- survivor count (dose: 64.0 mg/kg/injection, schedule: Q01DX001 (oral), vehicle: saline + alcohol): 0 of 10
- T/C (dose: 62.5 micrograms/kg/injection, schedule: Q01DX009 (ip), vehicle: saline + alcohol): 136 % of control
- T/C (dose: 125.0 micrograms/kg/injection, schedule: Q01DX009 (ip), vehicle: saline + alcohol): 136 % of control
- T/C (dose: 250.0 micrograms/kg/injection, schedule: Q01DX009 (ip), vehicle: saline + alcohol): 130 % of control
- T/C (dose: 500.0 micrograms/kg/injection, schedule: Q01DX009 (ip), vehicle: saline + alcohol): 146 % of control
- survivor count (dose: 2000.0 micrograms/kg/injection, schedule: Q01DX009 (ip), vehicle: saline + alcohol): 3 of 6
- survivor count (dose: 4000.0 micrograms/kg/injection, schedule: Q01DX009 (ip), vehicle: saline + alcohol): 0 of 6
